± gives the standard deviation of the averaged measurements. The list shows a part of the results.

Protein sequences, listed by entry. Tags and fused reporters are not part of them. Lines headed by an entry give the natural chain unless they say otherwise; changes in a name come on top.
UniProt Q9P0J1: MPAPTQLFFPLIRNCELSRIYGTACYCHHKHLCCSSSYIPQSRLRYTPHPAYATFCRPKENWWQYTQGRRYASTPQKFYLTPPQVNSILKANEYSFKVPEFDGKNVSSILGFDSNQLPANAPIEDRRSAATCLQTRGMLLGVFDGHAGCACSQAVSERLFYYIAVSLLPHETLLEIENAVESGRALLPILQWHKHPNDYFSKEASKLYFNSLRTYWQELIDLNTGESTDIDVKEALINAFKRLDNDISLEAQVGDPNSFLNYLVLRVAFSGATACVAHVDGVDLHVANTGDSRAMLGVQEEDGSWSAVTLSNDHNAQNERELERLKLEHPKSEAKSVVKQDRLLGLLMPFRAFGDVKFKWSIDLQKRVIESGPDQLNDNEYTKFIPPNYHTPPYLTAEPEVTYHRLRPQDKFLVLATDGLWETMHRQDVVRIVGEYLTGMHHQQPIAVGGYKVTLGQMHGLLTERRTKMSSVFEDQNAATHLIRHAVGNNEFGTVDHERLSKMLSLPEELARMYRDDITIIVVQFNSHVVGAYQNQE
UniProt Q9NVP2, whole entry: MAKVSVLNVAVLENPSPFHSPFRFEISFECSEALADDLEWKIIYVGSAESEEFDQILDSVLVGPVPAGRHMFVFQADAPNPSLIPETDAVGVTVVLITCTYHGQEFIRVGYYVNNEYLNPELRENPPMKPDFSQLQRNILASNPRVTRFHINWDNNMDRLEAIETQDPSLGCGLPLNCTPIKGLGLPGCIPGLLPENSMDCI
UniProt Q9UIQ6, whole entry: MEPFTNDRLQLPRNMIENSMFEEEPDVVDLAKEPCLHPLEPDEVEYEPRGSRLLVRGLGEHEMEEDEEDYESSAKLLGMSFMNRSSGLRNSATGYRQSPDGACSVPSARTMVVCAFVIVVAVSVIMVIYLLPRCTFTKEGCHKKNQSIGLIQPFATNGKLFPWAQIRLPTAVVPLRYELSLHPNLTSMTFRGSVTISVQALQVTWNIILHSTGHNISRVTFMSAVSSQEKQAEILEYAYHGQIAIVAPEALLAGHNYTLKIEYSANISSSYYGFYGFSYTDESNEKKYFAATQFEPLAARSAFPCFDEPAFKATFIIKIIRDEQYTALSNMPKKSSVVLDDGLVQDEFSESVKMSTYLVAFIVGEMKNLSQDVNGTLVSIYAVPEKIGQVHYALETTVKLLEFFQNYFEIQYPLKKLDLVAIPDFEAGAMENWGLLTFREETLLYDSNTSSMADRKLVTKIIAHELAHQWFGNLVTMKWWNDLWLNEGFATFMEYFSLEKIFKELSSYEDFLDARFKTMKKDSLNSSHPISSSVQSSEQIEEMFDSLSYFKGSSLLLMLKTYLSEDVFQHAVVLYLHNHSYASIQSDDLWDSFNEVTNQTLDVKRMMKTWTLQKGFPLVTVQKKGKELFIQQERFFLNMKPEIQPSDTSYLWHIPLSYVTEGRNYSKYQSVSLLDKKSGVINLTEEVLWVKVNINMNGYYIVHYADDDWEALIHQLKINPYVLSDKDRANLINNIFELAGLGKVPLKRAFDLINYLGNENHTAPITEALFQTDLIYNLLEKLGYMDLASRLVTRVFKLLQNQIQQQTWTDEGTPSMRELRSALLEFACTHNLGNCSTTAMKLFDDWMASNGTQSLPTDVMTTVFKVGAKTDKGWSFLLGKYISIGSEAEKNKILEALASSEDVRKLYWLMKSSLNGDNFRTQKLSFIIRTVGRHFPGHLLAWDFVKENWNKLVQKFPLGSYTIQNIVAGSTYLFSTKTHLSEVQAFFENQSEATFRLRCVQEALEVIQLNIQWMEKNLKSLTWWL
UniProt Q9P2D3: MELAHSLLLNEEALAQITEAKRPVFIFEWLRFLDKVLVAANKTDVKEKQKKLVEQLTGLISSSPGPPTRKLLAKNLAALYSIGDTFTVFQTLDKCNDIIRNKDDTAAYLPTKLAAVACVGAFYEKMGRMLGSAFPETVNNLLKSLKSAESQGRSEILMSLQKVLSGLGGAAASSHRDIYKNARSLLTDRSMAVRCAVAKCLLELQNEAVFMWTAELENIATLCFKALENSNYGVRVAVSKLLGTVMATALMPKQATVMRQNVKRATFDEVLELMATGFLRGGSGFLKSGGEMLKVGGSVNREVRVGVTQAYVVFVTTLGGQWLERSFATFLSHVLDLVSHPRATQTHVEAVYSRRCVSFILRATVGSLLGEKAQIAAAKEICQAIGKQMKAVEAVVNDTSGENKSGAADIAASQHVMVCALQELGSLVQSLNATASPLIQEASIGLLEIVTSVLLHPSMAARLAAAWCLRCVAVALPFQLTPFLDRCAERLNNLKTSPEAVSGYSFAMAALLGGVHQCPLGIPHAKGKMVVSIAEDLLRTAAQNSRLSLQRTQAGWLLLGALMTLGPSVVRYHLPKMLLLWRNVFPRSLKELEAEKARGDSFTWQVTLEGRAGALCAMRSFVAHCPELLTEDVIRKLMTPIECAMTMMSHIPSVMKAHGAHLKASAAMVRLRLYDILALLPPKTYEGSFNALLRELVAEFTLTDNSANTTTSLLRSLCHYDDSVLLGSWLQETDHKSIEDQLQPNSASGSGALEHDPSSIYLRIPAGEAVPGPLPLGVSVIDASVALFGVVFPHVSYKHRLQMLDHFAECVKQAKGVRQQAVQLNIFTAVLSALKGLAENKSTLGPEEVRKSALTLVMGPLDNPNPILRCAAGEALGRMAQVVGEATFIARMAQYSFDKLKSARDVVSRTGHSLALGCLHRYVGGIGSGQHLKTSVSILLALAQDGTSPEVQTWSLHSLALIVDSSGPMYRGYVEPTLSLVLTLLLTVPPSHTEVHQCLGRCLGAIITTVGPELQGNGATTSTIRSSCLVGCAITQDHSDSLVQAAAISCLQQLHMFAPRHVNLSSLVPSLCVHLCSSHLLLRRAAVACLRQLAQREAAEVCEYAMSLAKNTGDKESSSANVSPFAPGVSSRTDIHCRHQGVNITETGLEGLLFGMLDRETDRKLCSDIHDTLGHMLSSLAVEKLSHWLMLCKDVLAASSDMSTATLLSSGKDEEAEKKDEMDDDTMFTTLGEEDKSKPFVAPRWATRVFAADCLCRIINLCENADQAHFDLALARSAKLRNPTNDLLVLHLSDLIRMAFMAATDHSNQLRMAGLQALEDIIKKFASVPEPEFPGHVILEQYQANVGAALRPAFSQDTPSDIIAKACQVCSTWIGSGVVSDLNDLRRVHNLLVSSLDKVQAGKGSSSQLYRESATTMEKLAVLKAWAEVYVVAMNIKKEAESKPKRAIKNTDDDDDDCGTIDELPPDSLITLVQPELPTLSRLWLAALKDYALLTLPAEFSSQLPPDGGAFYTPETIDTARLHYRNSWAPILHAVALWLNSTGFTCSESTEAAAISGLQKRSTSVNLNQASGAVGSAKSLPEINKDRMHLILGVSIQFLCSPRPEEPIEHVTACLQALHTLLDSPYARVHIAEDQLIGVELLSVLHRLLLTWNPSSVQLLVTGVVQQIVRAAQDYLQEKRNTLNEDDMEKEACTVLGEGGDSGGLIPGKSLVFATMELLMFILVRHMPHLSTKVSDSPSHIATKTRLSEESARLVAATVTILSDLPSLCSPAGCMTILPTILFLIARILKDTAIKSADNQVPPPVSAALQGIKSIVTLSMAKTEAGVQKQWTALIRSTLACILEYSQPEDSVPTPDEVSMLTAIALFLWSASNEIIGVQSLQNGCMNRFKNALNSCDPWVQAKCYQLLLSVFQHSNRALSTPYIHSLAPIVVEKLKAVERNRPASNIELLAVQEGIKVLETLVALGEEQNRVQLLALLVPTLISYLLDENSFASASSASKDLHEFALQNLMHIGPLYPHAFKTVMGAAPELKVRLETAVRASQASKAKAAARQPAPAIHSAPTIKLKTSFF
UniProt Q9UJX6, whole entry: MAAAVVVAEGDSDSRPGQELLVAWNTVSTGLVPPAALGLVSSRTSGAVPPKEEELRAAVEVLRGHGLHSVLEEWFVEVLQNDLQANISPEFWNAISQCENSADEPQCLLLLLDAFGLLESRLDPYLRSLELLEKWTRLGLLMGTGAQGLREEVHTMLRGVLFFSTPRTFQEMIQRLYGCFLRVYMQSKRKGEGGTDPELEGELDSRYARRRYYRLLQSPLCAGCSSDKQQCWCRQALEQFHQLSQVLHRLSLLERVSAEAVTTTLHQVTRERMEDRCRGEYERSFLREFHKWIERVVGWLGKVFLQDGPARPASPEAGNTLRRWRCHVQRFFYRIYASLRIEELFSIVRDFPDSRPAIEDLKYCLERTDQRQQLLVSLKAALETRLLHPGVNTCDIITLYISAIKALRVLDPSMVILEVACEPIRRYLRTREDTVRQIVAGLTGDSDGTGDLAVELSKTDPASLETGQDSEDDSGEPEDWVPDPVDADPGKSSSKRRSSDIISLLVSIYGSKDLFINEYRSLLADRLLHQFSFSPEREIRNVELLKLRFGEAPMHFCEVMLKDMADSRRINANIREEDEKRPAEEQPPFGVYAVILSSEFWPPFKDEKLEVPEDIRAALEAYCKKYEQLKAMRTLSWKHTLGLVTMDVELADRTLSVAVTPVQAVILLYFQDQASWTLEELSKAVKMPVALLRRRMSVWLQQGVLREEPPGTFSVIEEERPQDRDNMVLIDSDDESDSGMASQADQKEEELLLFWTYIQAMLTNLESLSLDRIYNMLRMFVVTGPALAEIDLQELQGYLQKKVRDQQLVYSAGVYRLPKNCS

Compound in this experiment: Nc1nc2c(ncn2[C@@H]2O[C@H](COP(=O)(O)OP(=O)(O)OP(=O)(O)O)[C@@H](O)[C@H]2O)c(=O)[nH]1 [guanosine triphosphate]
Description: NP40-soluble protein abundance relative to vehicle (solubility fold change) (ratio); higher = more soluble protein in presence of GTP. On the procedure:
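Solubility proteome profiling in Jurkat crude lysate. Lysate was treated with Mg-GTP (0.1-10 mM) for 10 min at room temperature and 3 min at 37 °C, then solubilised with 0.8% NP40 and benzonase, followed by ultracentrifugation. Proteins were quantified by TMT10 LC-MS/MS; the value is the NP40-soluble abundance relative to the NP40-processed vehicle, from 3 independent experiments.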

Regarding UniProt Q9P0J1 and related entries, the NP40-soluble protein abundance (concentration: 0.1mM) worked out at 1.03 ± 0.058; the NP40-soluble protein abundance (concentration: 0.5mM) was determined as 1.02 ± 0.079; the NP40-soluble protein abundance (concentration: 1mM) was found to be 0.938 ± 0.033; the NP40-soluble protein abundance (concentration: 2mM) was found to be 1.06 ± 0.019; the NP40-soluble protein abundance (concentration: 4mM) came out at 1.04 ± 0.025; the NP40-soluble protein abundance (concentration: 6mM) was determined as 0.968 ± 0.058. The NP40-soluble protein abundance was determined as 0.95 ± 0.047 (concentration: 8mM) and 0.911 ± 0.065 (concentration: 10mM).
For the target ASF1B (UniProt Q9NVP2), the NP40-soluble protein abundance (concentration: 0.1mM) turned out to be 1.01 ± 0.082; the NP40-soluble protein abundance (concentration: 0.5mM) came out at 0.932 ± 0.11; the NP40-soluble protein abundance (concentration: 1mM) is 0.859 ± 0.02; the NP40-soluble protein abundance (concentration: 2mM) amounted to 0.86 ± 0.071; the NP40-soluble protein abundance (concentration: 4mM) was found to be 0.886 ± 0.014; the NP40-soluble protein abundance (concentration: 6mM) came to 0.788 ± 0.0082. In addition, the NP40-soluble protein abundance runs as follows: (concentration: 8mM) 0.782 ± 0.11; (concentration: 10mM) 0.811 ± 0.11.
Take UniProt Q9UIQ6 and related entries: the NP40-soluble protein abundance is, setting by setting: (concentration: 0.1mM) 0.957 ± 0.023; (concentration: 0.5mM) 0.96 ± 0.04; (concentration: 1mM) 0.99 ± 0.032; (concentration: 2mM) 0.983 ± 0.054; (concentration: 4mM) 0.97 ± 0.071; (concentration: 6mM) 0.997 ± 0.048. For the same target, the NP40-soluble protein abundance amounted to 0.9699 ± 0.0049 (concentration: 8mM) and 0.974 ± 0.052 (concentration: 10mM).
In the case of UniProt Q9P2D3 and related entries, the NP40-soluble protein abundance was 1.15 ± 0.21 (concentration: 0.1mM); 1.13 ± 0.16 (concentration: 0.5mM); 1.11 ± 0.17 (concentration: 1mM); 1.17 ± 0.21 (concentration: 2mM); 1.08 ± 0.15 (concentration: 4mM); 1.11 ± 0.16 (concentration: 6mM). In addition, the NP40-soluble protein abundance is 1.1 ± 0.26 (concentration: 8mM) and 1.1 ± 0.21 (concentration: 10mM).
For UniProt Q9UJX6 and related entries, the NP40-soluble protein abundance stood at 1.3 ± 0.28 (concentration: 0.1mM); 1.33 ± 0.37 (concentration: 0.5mM); 1.18 ± 0.28 (concentration: 1mM); 1.26 ± 0.47 (concentration: 2mM); 1.3 ± 0.37 (concentration: 4mM); 1.25 ± 0.46 (concentration: 6mM). Moreover, the NP40-soluble protein abundance amounted to 1.12 ± 0.31 (concentration: 8mM) and 1.22 ± 0.48 (concentration: 10mM).

The values above are taken from the supplement of paper PMC6411743.
